# Results are given in words; binding and its absence hold for the method and conditions named. In cells and extracts the contact can be indirect. Binding calls can cover weak binding; strength is not graded here. Where a sequence is shown, tags or fusion partners need not be part of it.
# Chains of the proteins cited; added tags and fusions are not shown. Lines headed by an entry give the natural chain unless they say otherwise; changes in a name come on top.
# UniProt Q1MTN9: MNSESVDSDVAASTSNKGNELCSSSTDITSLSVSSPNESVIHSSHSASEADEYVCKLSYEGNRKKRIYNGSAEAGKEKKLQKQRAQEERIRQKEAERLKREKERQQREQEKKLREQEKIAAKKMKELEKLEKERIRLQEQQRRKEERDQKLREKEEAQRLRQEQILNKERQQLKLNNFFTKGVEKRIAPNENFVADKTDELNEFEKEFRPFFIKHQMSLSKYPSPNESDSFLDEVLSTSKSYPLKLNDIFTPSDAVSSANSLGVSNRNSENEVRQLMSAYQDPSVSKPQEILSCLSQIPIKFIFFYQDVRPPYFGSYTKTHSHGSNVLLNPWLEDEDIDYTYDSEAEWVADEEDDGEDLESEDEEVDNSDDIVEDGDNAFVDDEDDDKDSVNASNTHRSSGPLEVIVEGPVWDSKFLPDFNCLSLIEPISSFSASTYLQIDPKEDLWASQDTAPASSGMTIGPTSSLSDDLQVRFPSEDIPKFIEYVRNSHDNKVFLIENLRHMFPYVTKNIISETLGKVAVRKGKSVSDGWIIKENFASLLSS
# B1: Pcf2-MYC (protein, UniProt O13985 1-512)
# chain: MRAEVLQIRWHYDANDDHTPIYSVDFQKNSLNKFATCGGDSKIRIWQLITSESSTKVEYLSTLSRHTQAVNVVRFNPEGNILATAGDEGTIMLWVPTNTPITTLADDAEELALAKEYWKVKIVCRSMGSEIYDLCWSVDSNFLIAGAMDNSLRLYDAHTGQLLTQKFDHSHYVQGVCWDPLNQYIVSESSDRSICLYEIQEEKKNPKKFQLVLKSRICRIEYNVTKFELISVTKPLNNDESSGISEPIETSNNNESPVSKHEALSSTANIVKDGSLERTEPPNSLNSKISYSLYCNETLVSFFRRPAFSPDGLLLVTPAGRLRPHGQPNFEVPYTAYIYTRGSITKQPVACLNGFKKPVIAVRFSPIHYELNSFSNFSFTSVSFNLPYRMVFAVACQDAVYIYDTQTCKPFYRAVNLHYSNLTDIAWNDDGNVLLMTSIDGFCSVITFEPGELGVKSQHKISLPEKRSASPSSIDDSQDNTAGGPATTTLIPRKVESSKVSKKRIAPTPVYP
# Biological target: Pcf1PIP^mut-YFP (S. pombe) (UniProt Q1MTN9)
# Assay: co-IP; S. pombe extract in EB buffer (50 mM HEPES, 50 mM KOAc pH 7.5, 5 mM EGTA, 1% triton X-100); Pcf1-YFP or Pcf1PIP^mut-YFP precipitated with anti-GFP and Dynabeads protein-G at 4°C; Western blot with anti-GFP, anti-Myc, Rqh1 antibody, anti-PCNA
binder,measurement,value
B1,binding,binds
